{"source": "PubChem BioAssay AID504808 (Drosophila RNAi Screening Center, 2011)", "aim": "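Fly genes required to hold E2F transcription in check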 (primary screen)", "cells": "Drosophila S2 cells", "knock-down reagent": "long dsRNA against Drosophila genes", "read-out": "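Firefly luciferase driven by E2F sites, normalised to Renilla luciferase on the same minimal promoter, measured by plate reader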", "direction": "E2F firefly: higher = more E2F reporter activity; Renilla normaliser: higher = more normaliser reporter signal", "hit rule": "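Called active if the normalised E2F reporter went up by over 50%; the cutoff is arbitrary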", "note": "The screen tested about 21,000 reagents; shown is an unselected part of those that have a named target and a result. In the full data, 18 (0.084%) were called active. 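Raw counts without plate normalisation, one of two replicates; the ratio scores behind the calls were not deposited.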 Unmarked entries are inactive. Reagent sequences are not shown. Not given: the amount of reagent, the time to read-out."}
{"gene": "Rab18 (GeneID 44360)", "amplicon": "DRSC18702", "E2F firefly, rep 1": 7775, "Renilla normaliser, rep 1": 764}
{"gene": "CG12983 (GeneID 40319)", "amplicon": "DRSC11692", "E2F firefly, rep 1": 1.31e5, "Renilla normaliser, rep 1": 7187}
{"gene": "CycC (GeneID 41801)", "amplicon": "DRSC16619", "E2F firefly, rep 1": 1.03e5, "Renilla normaliser, rep 1": 3106}
{"gene": "Had1 (GeneID 32592)", "amplicon": "DRSC20216", "E2F firefly, rep 1": 1.57e5, "Renilla normaliser, rep 1": 5933}
{"gene": "Nup37 (GeneID 43040)", "amplicon": "DRSC14419", "E2F firefly, rep 1": 1.06e5, "Renilla normaliser, rep 1": 7006}
{"gene": "CG3880 (GeneID 37957)", "amplicon": "DRSC04428", "E2F firefly, rep 1": 1.09e5, "Renilla normaliser, rep 1": 4545}
{"gene": "CngB (GeneID 37479)", "amplicon": "DRSC04297", "E2F firefly, rep 1": 87836, "Renilla normaliser, rep 1": 3592}
{"gene": "CG8180 (GeneID 36713)", "amplicon": "DRSC07092", "E2F firefly, rep 1": 73367, "Renilla normaliser, rep 1": 3348}
{"gene": "CG8180 (GeneID 36713)", "amplicon": "DRSC07093", "E2F firefly, rep 1": 1.01e5, "Renilla normaliser, rep 1": 4545}
{"gene": "mRpL24 (GeneID 33703)", "amplicon": "DRSC03113", "E2F firefly, rep 1": 95056, "Renilla normaliser, rep 1": 4214}
{"gene": "CG7378 (GeneID 32888)", "amplicon": "DRSC20041", "E2F firefly, rep 1": 1.42e5, "Renilla normaliser, rep 1": 6048}
{"gene": "ouib (GeneID 41039)", "amplicon": "DRSC14376", "E2F firefly, rep 1": 1.30e5, "Renilla normaliser, rep 1": 6668}

Not a retest: 2 of the entries above.
{"gene": "mRpL24 (GeneID 33703)", "amplicon": "DRSC03113", "E2F firefly, rep 1": 95056, "Renilla normaliser, rep 1": 4214}
{"gene": "CG7378 (GeneID 32888)", "amplicon": "DRSC20041", "E2F firefly, rep 1": 1.42e5, "Renilla normaliser, rep 1": 6048}
